Data as given in patent publication US20020081280A1.
Results are given in words; binding and its absence hold for the method and conditions named. Some binding calls cover weakened binding; strength is not graded here.

The chains behind the UniProt entries cited, without tags or fusion partners. Residues count along the entry.
UniProt P78310, residues 20-365: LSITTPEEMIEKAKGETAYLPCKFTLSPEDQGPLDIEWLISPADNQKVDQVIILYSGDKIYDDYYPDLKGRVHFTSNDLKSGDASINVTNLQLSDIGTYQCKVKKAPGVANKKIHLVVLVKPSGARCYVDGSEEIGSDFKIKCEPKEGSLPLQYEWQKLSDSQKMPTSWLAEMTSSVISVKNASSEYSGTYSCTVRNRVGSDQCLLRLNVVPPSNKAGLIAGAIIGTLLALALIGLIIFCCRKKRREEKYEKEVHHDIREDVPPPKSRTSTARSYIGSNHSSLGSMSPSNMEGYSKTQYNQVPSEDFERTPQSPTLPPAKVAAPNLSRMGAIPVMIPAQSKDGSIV

Target: coxsackievirus and adenovirus receptor (CAR) on human cells (human) (UniProt P78310)
Experiment: 125I-virion binding to HUVEC cells at 4 °C, knob at 100 µg/ml

B1: recombinant Ad5 fiber knob protein expressed in E. coli (protein)
chain: GAITVGNKNNDKLTLWTTPAPSPNCRLNAEKDAKLTLVLTKCGSQILATVSVLAVKGSLAPISGTVQSAHLIIRFDENGVLLNNSFLDPEYWNFRNGDLTEGTAYTNAVGFMPNLSAYPKSHGKTAKSNIVSQVYLNGDKTKPVTLTITLNGTQETGDTTPSAYSMSFSWDWSGHNYINEIFATSSYTFSYIAQE
  binding: binds
